Measured values reported in patent US20190307908A1, “NANOEMULSION AGENTS FOR ULTRASOUND DIAGNOSTIC AND THERAPY” (University of Washington, priority 2018, published 2019).

assay: acoustic activation (cavitation) threshold, passive cavitation detection; assay type: physicochemical; conditions: ouzo droplets; 15-cycle pulses, 1.24 MHz focused transducer, degassed water bath 37° C.

SMILES	50% activation (cavitation) threshold [MPa]
FC(F)(F)C(F)(F)C(F)(F)C(F)(F)F [perfluorobutane]	3.49
FC(F)(F)C(F)(F)C(F)(F)C(F)(F)C(F)(F)C(F)(F)F [perfluorohexane]	6.86
FC(F)(F)C(F)(F)C(F)(F)C(F)(F)C(F)(F)F [perfluoropentane]	5.11
FC(F)(F)C(F)(F)C(F)(F)F [perfluoropropane]	1.74
